Data taken from the supplement of paper PMC4604168 (melanoma cell lines).
This is one part of the list. Many values rest on one well or one pass, so single values are uncertain.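 Imaging used 1,536-well plates; nuclei positive for cleaved PARP by antibody were divided by total DNA-stained nuclei to yield the apoptosis fraction. Doses for screening kept most cells viable, and cell lines differ markedly in resting and induced cleaved-PARP levels.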

What follows are compounds tested on COLO792 (assay: cleaved PARP positive nuclei fraction relative to DMSO control; melanoma cells; higher = more apoptosis). Details: library dose: low library concentration; 72 h.

Row | Compound | cleaved PARP positive nuclei fraction
1 | O=C(/C=C/c1cccnc1)NCCCCC1CCN(C(=O)c2ccccc2)CC1 + CS(=O)(=O)c1ccc(C(=O)Nc2ccc(Cl)c(-c3ccccn3)c2)c(Cl)c1 [vismodegib] (first compound 0.01 µM, partner dose 1 µM) | 798%
2 | O=C(Nc1cc(C(F)(F)F)cc(C(F)(F)F)c1)c1cc(Cl)ccc1O + CCCCCCCCc1ccc(CCC(N)(CO)CO)cc1 [fingolimod] (first compound 0.016 µM, partner dose 2 µM) | 41.2%
3 | CC[C@]1(O)C[C@H]2CN(CCc3c([nH]c4ccccc34)[C@@](C(=O)OC)(c3cc4c(cc3OC)N(C=O)[C@H]3[C@@](O)(C(=O)OC)[C@H](OC(C)=O)[C@]5(CC)C=CCN6CC[C@]43[C@@H]65)C2)C1 [vincristine] + CCCCCCCCCCCCCCCCCCOP(=O)([O-])OC1CC[N+](C)(C)CC1 [Perifosine] (first compound 0.0001 µM, partner dose 0.4 µM) | 114%
4 | Cc1cc(Nc2cc(N3CCN(C)CC3)nc(Sc3ccc(NC(=O)C4CC4)cc3)n2)n[nH]1 [Tozasertib] + C#Cc1cccc(Nc2ncnc3cc(OCCOC)c(OCCOC)cc23)c1 [erlotinib] (first compound 0.006 µM, partner dose 0.8 µM) | 53.3%
5 | Cc1cc(Nc2cc(N3CCN(C)CC3)nc(Sc3ccc(NC(=O)C4CC4)cc3)n2)n[nH]1 [Tozasertib] + CO[C@H]1C[C@@H]2CC[C@@H](C)[C@@](O)(O2)C(=O)C(=O)N2CCCC[C@H]2C(=O)O[C@H]([C@H](C)C[C@@H]2CC[C@@H](OCCO)[C@H](OC)C2)CC(=O)[C@H](C)/C=C(\C)[C@@H](O)[C@@H](OC)C(=O)[C@H](C)C[C@H](C)/C=C/C=C/C=C/1C [everolimus] (first compound 0.006 µM, partner dose 0.02 µM) | 178%
6 | Cc1ccc(Nc2nccc(N(C)c3ccc4c(C)n(C)nc4c3)n2)cc1S(N)(=O)=O [Pazopanib] + C#Cc1cccc(Nc2ncnc3cc(OCCOC)c(OCCOC)cc23)c1 [erlotinib] (first compound 0.4 µM, partner dose 0.8 µM) | 138%
7 | CCCCCCCCCCCCCCCCCCOP(=O)([O-])OC1CC[N+](C)(C)CC1 [Perifosine] + C=C(c1ccc(C(=O)O)cc1)c1cc2c(cc1C)C(C)(C)CCC2(C)C [Bexarotene] (first compound 0.4 µM, partner dose 2 µM) | 76.6%
8 | O=c1[nH]nc(Sc2ncc([N+](=O)[O-])s2)n1-c1ccc2c(c1)OCCO2 + Cc1cc(Nc2cc(N3CCN(C)CC3)nc(/C=C/c3ccccc3)n2)n[nH]1 [ENMD2076] (first compound 0.2 µM, partner dose 0.04 µM) | 92.9%
9 | CCCCCCCCCCCCCCCCCCOP(=O)([O-])OC1CC[N+](C)(C)CC1 [Perifosine] + Clc1ccc(Nc2nnc(Cc3ccncc3)c3ccccc23)cc1 [vatalanib] (first compound 0.4 µM, partner dose 2 µM) | 100%
10 | Cc1cn(-c2cc(NC(=O)c3ccc(C)c(Nc4nccc(-c5cccnc5)n4)c3)cc(C(F)(F)F)c2)cn1 [nilotinib] + Cn1nnc2c(C(N)=O)ncn2c1=O [temozolomide] (first compound 0.2 µM, partner dose 2 µM) | 115%

Records 1 through 2, reprinted for reference:
Row | Compound | cleaved PARP positive nuclei fraction
1 | O=C(/C=C/c1cccnc1)NCCCCC1CCN(C(=O)c2ccccc2)CC1 + CS(=O)(=O)c1ccc(C(=O)Nc2ccc(Cl)c(-c3ccccn3)c2)c(Cl)c1 [vismodegib] (first compound 0.01 µM, partner dose 1 µM) | 798%
2 | O=C(Nc1cc(C(F)(F)F)cc(C(F)(F)F)c1)c1cc(Cl)ccc1O + CCCCCCCCc1ccc(CCC(N)(CO)CO)cc1 [fingolimod] (first compound 0.016 µM, partner dose 2 µM) | 41.2%
